Results as given in publication doi:10.1101/2024.09.30.615192.

Amino acid sequences for entries named in this document (tags omitted). Residues count along the entry.
UniProt P48764, residues 26-834: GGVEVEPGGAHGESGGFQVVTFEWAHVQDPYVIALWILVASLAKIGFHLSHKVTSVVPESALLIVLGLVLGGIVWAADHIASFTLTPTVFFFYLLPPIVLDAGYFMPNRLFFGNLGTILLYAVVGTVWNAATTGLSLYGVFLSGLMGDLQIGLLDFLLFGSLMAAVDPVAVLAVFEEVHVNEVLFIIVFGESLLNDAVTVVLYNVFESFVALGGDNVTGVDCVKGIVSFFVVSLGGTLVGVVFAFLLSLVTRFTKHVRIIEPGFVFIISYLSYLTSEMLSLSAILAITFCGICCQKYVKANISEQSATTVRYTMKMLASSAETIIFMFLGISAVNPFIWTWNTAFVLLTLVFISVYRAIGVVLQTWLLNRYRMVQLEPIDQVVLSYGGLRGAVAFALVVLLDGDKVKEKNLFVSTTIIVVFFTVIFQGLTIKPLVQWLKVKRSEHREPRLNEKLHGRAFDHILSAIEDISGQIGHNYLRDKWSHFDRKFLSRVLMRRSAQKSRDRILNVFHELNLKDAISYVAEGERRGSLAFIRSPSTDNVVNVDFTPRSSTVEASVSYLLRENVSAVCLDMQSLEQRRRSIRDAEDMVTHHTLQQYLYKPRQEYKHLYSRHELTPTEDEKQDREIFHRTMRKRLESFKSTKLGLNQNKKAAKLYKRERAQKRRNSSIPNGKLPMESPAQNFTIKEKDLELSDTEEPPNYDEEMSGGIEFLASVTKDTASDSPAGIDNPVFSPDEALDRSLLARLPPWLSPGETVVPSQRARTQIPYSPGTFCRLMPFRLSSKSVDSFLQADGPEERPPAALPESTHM

How the values were obtained:
Test in all cases: affinity purification with mass spectrometry
SLC9A2 (human) = biological target: T1, SLC9A2 (human) (UniProt Q9UBY0)
T1 sequence: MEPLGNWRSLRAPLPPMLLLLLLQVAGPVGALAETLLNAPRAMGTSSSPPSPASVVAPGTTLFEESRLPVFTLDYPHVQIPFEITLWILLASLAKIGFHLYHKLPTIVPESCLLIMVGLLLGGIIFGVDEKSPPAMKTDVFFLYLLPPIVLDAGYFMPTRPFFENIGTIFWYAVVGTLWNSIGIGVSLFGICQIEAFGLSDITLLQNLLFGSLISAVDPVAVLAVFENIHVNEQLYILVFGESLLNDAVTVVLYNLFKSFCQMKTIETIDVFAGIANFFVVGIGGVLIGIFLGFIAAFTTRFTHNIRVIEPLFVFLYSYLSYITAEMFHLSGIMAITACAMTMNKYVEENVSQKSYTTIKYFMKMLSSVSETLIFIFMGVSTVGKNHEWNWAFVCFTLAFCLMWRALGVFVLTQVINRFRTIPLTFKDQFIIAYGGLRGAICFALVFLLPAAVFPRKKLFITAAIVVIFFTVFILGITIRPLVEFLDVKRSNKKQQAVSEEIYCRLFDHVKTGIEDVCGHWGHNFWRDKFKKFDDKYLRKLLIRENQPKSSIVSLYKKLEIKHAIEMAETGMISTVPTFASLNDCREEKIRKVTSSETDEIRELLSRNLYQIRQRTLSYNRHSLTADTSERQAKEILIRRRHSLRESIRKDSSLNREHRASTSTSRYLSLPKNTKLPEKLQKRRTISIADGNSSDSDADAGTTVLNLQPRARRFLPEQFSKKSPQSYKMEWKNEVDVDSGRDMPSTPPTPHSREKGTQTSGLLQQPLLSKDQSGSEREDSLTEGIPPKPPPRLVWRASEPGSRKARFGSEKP

SLC9A3 (human) = SLC9A3 (human) (UniProt P48764)
SLC9A4 (human) = biological target: T2, SLC9A4 (human) (UniProt Q6AI14)
T2 sequence: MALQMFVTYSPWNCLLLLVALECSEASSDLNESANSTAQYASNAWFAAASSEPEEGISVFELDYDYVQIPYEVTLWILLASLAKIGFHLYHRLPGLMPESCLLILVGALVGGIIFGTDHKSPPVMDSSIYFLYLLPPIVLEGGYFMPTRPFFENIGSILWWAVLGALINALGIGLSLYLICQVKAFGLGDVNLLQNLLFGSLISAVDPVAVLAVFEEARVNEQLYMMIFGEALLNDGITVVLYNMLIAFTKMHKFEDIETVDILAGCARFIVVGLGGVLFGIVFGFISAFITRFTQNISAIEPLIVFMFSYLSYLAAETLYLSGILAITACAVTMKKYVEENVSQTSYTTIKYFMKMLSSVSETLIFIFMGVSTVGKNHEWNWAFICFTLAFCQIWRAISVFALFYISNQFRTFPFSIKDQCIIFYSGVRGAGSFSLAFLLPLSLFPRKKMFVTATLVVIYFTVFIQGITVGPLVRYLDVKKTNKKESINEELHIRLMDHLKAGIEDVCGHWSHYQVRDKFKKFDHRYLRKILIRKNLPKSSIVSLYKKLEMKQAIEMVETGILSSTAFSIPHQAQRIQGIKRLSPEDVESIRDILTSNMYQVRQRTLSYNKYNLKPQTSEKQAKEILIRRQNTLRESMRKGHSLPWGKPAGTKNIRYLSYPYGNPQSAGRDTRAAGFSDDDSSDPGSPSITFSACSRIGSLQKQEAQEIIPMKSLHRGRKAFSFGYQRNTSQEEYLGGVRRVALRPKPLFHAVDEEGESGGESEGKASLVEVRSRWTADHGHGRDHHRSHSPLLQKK

SLC9A9 (human) = biological target: T3, SLC9A9 (human) (UniProt Q8IVB4)
T3 sequence: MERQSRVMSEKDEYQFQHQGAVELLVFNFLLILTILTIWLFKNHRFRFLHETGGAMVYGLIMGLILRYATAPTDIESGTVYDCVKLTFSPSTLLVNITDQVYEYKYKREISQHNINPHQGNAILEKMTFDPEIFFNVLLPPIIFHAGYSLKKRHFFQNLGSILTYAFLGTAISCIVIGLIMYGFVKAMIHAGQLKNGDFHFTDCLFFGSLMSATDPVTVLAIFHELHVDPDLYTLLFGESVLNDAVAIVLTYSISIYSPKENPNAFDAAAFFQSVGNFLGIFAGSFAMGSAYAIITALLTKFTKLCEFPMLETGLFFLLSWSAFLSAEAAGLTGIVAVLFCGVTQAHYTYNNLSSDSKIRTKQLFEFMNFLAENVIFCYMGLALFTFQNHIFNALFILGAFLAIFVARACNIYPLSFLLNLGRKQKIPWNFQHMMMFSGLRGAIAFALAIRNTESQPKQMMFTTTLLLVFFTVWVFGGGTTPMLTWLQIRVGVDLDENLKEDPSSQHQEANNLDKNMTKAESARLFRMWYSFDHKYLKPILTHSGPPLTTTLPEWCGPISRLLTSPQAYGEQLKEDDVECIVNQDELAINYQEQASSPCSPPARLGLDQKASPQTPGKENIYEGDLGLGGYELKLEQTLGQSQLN

Measured: binding

B1: calcium-binding protein CHP1 (protein, UniProt Q99653 1-195)
chain: MGSRASTLLRDEELEEIKKETGFSHSQITRLYSRFTSLDKGENGTLSREDFQRIPELAINPLGDRIINAFFPEGEDQVNFRGFMRTLAHFRPIEDNEKSKDVNGPEPLNSRSNKLHFAFRLYDLDKDEKISRDELLQVLRMMVGVNISDEQLGSIADRTIQEADQDGDSAISFTEFVKVLEKVDVEQKMSIRFLH
binds: all assays above

Results are given in words; binding and its absence hold for the method and conditions named. Binding seen in cells or lysates may run through a third protein. Here binding means that the protein was enriched with, or labelled near, the bait; the list need not be complete.
